Laboratory results reported in patent US20100009868.

Key:
[1] = tested on: alpha-thrombin (Homo sapiens); assay: binding assay; settings: CITED published apparent Kd; purified native protein; folded or branched DNA
IgE = assay: competition with a labelled probe; settings: dT7 replaced by 3-methylisoxanthopterin (3MI); IgE control showed no competition of binding to aptamer array; purified native protein; label: 3MI at position 7; folded or branched DNA; variant of TBA 15-mer

| Sequence | Kd [1] [nM] | binding result (IgE) |
| --- | --- | --- |
| GGTTGGTGTGGTTGG [TBA 15-mer] | 10 | – |
| GGTTGGTGTGGTTGG [3MI-TBA signaling aptamer on DNA tile array] | – | no binding |

Construct, isoform or probe ends are uncertain for at least one entry. For some assays here: No signal at the amounts used counts as a negative.
